Here are results for 2 substances from patent US20050084884A1.

Sequences of proteins named here, by UniProt entry; tags and fusion partners are left off. A change or cut given only in a name is not applied to a line headed by its entry.
UniProt Q13233: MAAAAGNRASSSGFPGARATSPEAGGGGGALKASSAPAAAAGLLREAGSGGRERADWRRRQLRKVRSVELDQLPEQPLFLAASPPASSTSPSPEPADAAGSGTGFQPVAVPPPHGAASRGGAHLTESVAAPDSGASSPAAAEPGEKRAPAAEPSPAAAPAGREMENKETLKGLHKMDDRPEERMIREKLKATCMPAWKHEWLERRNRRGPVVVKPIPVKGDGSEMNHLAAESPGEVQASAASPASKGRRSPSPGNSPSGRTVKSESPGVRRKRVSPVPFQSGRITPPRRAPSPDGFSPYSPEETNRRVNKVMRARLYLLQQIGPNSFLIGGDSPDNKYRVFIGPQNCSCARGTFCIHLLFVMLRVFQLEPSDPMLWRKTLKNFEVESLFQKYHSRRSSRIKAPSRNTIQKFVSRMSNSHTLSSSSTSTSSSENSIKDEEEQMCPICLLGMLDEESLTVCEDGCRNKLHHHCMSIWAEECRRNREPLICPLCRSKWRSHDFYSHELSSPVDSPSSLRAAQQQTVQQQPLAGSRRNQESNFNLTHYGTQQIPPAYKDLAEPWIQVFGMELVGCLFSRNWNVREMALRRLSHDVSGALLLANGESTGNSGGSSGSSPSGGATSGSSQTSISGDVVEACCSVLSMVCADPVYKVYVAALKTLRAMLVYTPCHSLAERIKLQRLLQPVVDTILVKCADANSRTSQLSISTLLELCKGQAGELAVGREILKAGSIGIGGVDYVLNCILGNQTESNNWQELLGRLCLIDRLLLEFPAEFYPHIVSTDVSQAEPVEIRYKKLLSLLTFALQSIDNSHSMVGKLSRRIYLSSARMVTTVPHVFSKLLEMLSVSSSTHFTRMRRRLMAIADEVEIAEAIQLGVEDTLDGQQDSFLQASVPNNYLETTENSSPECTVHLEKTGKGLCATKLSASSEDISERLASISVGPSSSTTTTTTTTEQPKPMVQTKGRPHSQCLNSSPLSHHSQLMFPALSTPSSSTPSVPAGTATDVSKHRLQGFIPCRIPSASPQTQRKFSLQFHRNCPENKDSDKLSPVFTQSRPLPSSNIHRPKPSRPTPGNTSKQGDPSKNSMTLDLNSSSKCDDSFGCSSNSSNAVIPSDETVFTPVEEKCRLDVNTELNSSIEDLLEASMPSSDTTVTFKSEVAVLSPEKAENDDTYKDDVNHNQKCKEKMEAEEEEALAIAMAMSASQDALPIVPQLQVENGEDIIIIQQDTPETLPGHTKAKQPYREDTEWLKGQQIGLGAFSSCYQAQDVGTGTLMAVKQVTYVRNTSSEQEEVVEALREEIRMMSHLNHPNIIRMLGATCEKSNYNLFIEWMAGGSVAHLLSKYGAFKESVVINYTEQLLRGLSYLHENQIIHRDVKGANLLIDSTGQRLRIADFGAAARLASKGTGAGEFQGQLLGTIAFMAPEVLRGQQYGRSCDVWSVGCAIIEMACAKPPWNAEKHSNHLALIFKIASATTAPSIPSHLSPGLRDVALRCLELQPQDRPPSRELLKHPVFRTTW
UniProt Q99558: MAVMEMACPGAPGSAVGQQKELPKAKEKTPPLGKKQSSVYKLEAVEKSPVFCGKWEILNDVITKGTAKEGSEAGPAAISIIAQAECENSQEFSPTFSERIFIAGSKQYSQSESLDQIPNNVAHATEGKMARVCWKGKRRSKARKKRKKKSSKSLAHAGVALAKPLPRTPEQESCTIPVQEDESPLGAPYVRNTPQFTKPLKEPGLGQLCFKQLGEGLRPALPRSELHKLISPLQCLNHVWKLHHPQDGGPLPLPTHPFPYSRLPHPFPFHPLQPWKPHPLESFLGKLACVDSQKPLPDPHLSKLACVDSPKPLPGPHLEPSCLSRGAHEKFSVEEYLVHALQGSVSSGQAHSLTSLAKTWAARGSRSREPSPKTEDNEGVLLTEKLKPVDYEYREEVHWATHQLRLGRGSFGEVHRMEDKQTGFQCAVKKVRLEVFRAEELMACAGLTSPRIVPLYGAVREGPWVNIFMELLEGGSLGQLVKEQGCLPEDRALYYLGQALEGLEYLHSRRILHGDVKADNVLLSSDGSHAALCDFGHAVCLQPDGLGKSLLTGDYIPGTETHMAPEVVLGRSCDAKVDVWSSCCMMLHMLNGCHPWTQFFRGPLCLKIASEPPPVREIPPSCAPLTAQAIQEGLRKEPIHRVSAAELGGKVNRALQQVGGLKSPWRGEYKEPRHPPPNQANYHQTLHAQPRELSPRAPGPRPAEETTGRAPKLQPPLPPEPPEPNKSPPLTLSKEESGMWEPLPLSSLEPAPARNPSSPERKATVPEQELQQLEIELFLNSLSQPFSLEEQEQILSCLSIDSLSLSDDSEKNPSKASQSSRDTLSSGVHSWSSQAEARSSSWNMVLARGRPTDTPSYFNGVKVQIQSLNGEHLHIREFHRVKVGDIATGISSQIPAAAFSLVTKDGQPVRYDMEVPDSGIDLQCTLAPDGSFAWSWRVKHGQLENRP

Assay [1] has as its target T1, myc-tagged IKK1 protein (UniProt O15111).
T1 sequence (looked up): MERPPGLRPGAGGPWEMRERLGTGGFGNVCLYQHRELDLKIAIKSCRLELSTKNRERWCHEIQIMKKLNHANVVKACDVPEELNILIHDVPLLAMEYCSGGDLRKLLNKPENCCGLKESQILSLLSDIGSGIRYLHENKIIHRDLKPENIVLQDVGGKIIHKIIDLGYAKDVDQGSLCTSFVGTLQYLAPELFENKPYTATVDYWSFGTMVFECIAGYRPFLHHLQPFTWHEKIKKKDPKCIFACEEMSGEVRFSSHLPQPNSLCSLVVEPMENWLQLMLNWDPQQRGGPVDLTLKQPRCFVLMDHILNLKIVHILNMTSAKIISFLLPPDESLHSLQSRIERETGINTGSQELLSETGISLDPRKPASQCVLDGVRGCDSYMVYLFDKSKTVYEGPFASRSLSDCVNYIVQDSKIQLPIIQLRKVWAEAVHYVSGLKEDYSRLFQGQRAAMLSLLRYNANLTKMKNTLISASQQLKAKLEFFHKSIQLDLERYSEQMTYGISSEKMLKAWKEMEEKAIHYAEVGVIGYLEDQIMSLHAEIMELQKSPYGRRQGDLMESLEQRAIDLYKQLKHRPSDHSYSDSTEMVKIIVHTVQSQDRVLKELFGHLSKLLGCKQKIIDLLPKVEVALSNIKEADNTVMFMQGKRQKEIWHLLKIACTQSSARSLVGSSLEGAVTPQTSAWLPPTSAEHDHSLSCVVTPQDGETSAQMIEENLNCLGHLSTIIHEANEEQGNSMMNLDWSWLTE
In words: co-immunoprecipitation from transfected 293 cell lysates on anti-flag M2 resin, Western blot with anti-myc antibody. (In western blotting, separated proteins are transferred to a membrane and probed.)

The target of assay [2] is T1, myc-tagged IKK1 protein. In words: co-immunoprecipitation from transfected 293 cell lysates on anti-flag M2 resin, Western blot with anti-myc antibody (positive control).

No constants are given. Whether binding was seen depends on the method and setting. Binding seen in cells or lysates may run through a third protein. Some results given as binding are weak or reduced against the parent protein; the word gives no strength. Tags and fused reporters may be left off the sequences shown.

For the substance “C-terminal FLAG-tagged full-length human MEKK1 (from UniProt Q13233 1-1512) (enzyme)”, the binding result in assay [1] is listed as “binds”.
Take “flag-tagged NIK protein (from UniProt Q99558 1-947) (enzyme)”: in assay [2], the binding entry is recorded as “binds”.
